The record followed here is US6908897B2 (Aventis Pharma Deutschland GmbH, priority 1999, dated 2005).

Non-standard residues stand in square brackets, D forms with d. No end group written: not given here. Sar = CNCC(=O)O

The data set in a line: peptide synthesis. As to conditions: for final HPLC purity: RP-HPLC.
[1] abbreviates: conjugation step, several disulfide bridges, sequence written open.

For the substance A1-Msc-DOI-Gly-Phe-Phe-D-Ala-NH2, where the note is “coupling step”, the step yield stood at 53.9% and the “final HPLC purity” value was determined as 95.1%.

As for A1-Msc-DOI-Gly-Phe-Phe-Glu-NH2, for the setting “coupling step”, the step yield is recorded as 38.6% and the “final HPLC purity” value was 95.7%.

Take “B1,B1′-Sub-DOI-Gly-Phe-Phe-D-Ala-NH2 dimer”: under setting [1], the “final HPLC purity” value turned out to be 88.1% and the conjugation yield is given as 11.9%.

Regarding “B1,B1′-Sub-DOI-Gly-Phe-Phe-Glu-NH2 dimer”, under setting [1], the “final HPLC purity” value is on record as above 99% and the conjugation yield was determined as 15.8%.

Consider GFF[Sar]-NH2, for which, where the note is “whole synthesis”, the isolated yield is reported as 82.6% and the “final HPLC purity” value came to 98.5%.

Consider GFF[dA]-NH2, for which, under “whole synthesis”, the isolated yield was 61.6% and the “final HPLC purity” value worked out at 99.1%.

Take Gly-Phe-Phe-Glu-NH2: for the setting “whole synthesis”, the isolated yield stood at 74.9% and the “final HPLC purity” value turned out to be 94.5%.
